Results are given in words; binding and its absence hold for the method and conditions named. For some of these results: A result given as binding can be weak or reduced; the word gives no strength.
How the values were obtained:
Test in all cases: two-hybrid; H constructs as bait in pEG202, Asf1 or Su(H) as prey in pJG4-5; lacZ reporter from pSH18-34, blue coloration of yeast colonies; overnight incubation for Su(H)-H, 48 h for Asf1-H
[1] = biological target: Hairless NTCT domain, two-hybrid bait (pEG NTCT) (Drosophila melanogaster)
[2] = biological target: Hairless NTCT^ΔCT, two-hybrid bait (pEG NTCT^ΔCT) (Drosophila melanogaster)
[3] = biological target: Hairless NTCT^ΔNT, two-hybrid bait (pEG NTCT^ΔNT) (Drosophila melanogaster)
[4] = biological target: Hairless CT domain, two-hybrid bait (pEG CT) (Drosophila melanogaster)

B1: Asf1, full-length, two-hybrid prey (pJG Asf1) (protein, UniProt Q9V464 1-218)
chain: MAKVHITNVVVLDNPSSFFNPFQFELTFECIEELKEDLEWKMIYVGSAESEEHDQVLDTIYVGPVPEGRHIFVFQADPPDVSKIPEPDAVGVTIVLLTCSYRGQEFVRVGYYVNNDYADPEMRENPPTKPLFEKLTRNILASKPRVTRFKINWDYGHINGNGNGVENGHQDEMATDGPSTSEAASAVIHPEDDNSLAMPMENGIKALNENSNSLAMEC
Q: What does the source list for B1?
A: binding [1]: binds weakly; binding [2]: no binding; binding [3]: binds; binding [4]: binds weakly
